Results published in the supplement of paper PMC5949888.
Most values lie at the floor of the assay. Slopes are relative: functional sequences can read slightly below zero.

Test system: Saccharomyces cerevisiae PS128 hsf1 delta, HSF1(1-493) fusion
Experiment: growth estimate (transactivation domain function in HSF1 fusion, heat-shock survival) (a.u. (slope of normalised read count over time)); higher = stronger growth at 37°C, i.e. more transactivation activity
Conditions: library: random library
Experimental: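 Random 60-nt DNA library encoding peptides of up to 20 aa, fused to the C-terminus of yeast HSF1 residues 1-493 (C-terminal TAD deleted) and expressed from the native HSF1 promoter on a CEN plasmid in hsf1-deleted S. cerevisiae PS128. Cells were selected at 37°C on -trp 5-FOA plates for 0, 2, 4, 6 and 8 days and amplicons were sequenced. Growth estimate is the slope of a robust linear fit of total-sum-normalised read counts (normalised to the first time point) over time, using at least 2 replicates. Sequences are classed functional (TAD activity) above a threshold of -0.13, set from stop-codon control sequences.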

Substance	growth estimate
GWRSGLSSTRLRR	< -0.25
GWSTQNYNHLEV	< -0.25
GWSVQTGRRASRWC	< -0.25
GWTETLRYKRMVILSPRRVW	< -0.25
GWTRRVG	-0.246
GWVETSHGSSVPMITPH	< -0.25
GWVSLTRHTGLAL	< -0.25
GYAAWPSEMMVLLLLQNRTR	< -0.25
GYAGAL	< -0.25
GYASIAVLV	< -0.25
GYATLDLCALRGGVVKMAEA	< -0.25
GYDASSGLPTVSHGQLYHRY	< -0.25
GYDTEPGLAT	< -0.25
GYEPYGFRLCRAHGIHSTRD	< -0.25
GYGEAWKGRREGARYI	< -0.25
GYGHAVLHSCTLAMQKGYSL	< -0.25
GYIPLGP	< -0.25
GYKM	< -0.253
GYLGRIVSATNIYGPSGPTG	< -0.25
GYLLYEWRSAGNDRKASWTT	< -0.25
GYLPATDVVEDESVWNPLTR	< -0.25
GYLTPFSMKRFVQRRIVTVL	< -0.25
GYMSGFICIGVMSGRRFKGQ	< -0.25
GYNGGF	< -0.25

Substance	growth estimate
GYNMKTGGERDRGVRSKSYR	< -0.25
GYPPFALLHFKGNLFF	< -0.25
GYPSISRFHTTADRLITIRG	< -0.25
GYQVSSGLGSTLARGKEESR	< -0.25
GYRQLSVMRCSGRRGSCRTV	< -0.25
GYSRQSMCSEMDS	< -0.25
GYV	< -0.25
GYWSFKHGINKTKP	< -0.25
HAAAIGLREK	< -0.25
HAARDTTWASSV	< -0.25
HADCKDTSRHHRRQLHGGIL	< -0.25
HADRTSLGNVESVFQLISSV	< -0.25
HAEGVPEQALIIRIPNPGAP	< -0.25
HAIIDN	< -0.25
HAIIKFGGCSVLVRTDKDGN	< -0.25
HAIRPSTLGGCLIPYIIPPV	< -0.25
HAIT	< -0.25
HAKVPEGTLWACVGGELIYG	< -0.25
HAL	< -0.25
HALCVR	< -0.25
HALLITRSSTEAKPASGAYT	< -0.25
HALREHARPVFA	< -0.25
HANRSRT	< -0.25
HAPIMNL	< -0.25

Some of the entries above, reformatted.
Substance | growth estimate
GYDASSGLPTVSHGQLYHRY | < -0.25
GYDTEPGLAT | < -0.25
GYEPYGFRLCRAHGIHSTRD | < -0.25
GYGEAWKGRREGARYI | < -0.25
GYGHAVLHSCTLAMQKGYSL | < -0.25

(list continues)

Substance	growth estimate
HAQISTL	< -0.25
HARAP	< -0.25
HARKSRRVTTVVNNSLTKR	< -0.25
HASTTVHCDRLLLESQGDLT	< -0.25
HATAP	< -0.25
HATTATEQKSPVGEAMRSLC	< -0.25
HAVSDMKYSHVPPRVPGTAR	< -0.25
HAYREMGRHRSRPSADTRPI	< -0.25
HCCPK	< -0.25
HCGFIKGSIVTHLGPSLKQR	-0.246
HCKED	< -0.25
HCLGAYYAYPRFTMLISFHV	< -0.25
HCLLSVQTCPMKKTRSGTLG	-0.229
HCLSVD	< -0.25
HCRFTG	< -0.25
HCRGFGVGRLALAFTIWTTR	< -0.25
HCSLLFYARRSPRHHPESRE	< -0.25
HCSNLVSDYI	< -0.25
HCTNRRRRRSLLRAVKFLAE	< -0.25
HCTRVRIGAVFQSTRGKYWK	< -0.25
HCTSFITRDNGHSRKLHIHW	< -0.25
HCVKKKPPGHIEPGFQRALT	< -0.25
HCVTVPPTLLRCGTLYCQLA	< -0.25
HCYRSGAQIPYFVRKLCTHL	< -0.25

Substance	growth estimate
HDAGLPGIL	< -0.25
HDCILGRTAGAVIPKSIAPI	< -0.25
HDERSDPHDRGRWLRHVWRH	< -0.25
HDLAWLRLNGIFERYVWDQC	-0.0335
HDP	< -0.25
HDPPR	< -0.25
HDQSRAGVSRVGIFYTTSSP	< -0.25
HDQYGEKG	< -0.25
HDREP	< -0.25
HDRKPKWG	< -0.25
HDRVFSEHRRS	< -0.25
HDRYLSVGLPLLHVAKGSTI	< -0.25
HDSAVSLGALTE	< -0.25
HEALLVKLWKEALLGIPDRC	< -0.25
HEDGPNANEPGQESAPTRLI	-0.231
HEEGKATSTVGNAATGPLCL	< -0.25
HEELSLRAMTK	< -0.25
HEFPQMHASRPATEASSRGL	< -0.25
HEGKGDNSHDKSEYVRVTCW	< -0.25
HEGNLFRKVATRTSGST	< -0.25
HEGVQLLGTLAVANGANIPF	< -0.25
HEHPRAGNVYSVSVDAGSAC	< -0.25
HELRYCCGRAGLYEYF	-0.245
